Assay results as given in PubChem BioAssay AID2685 (National Center for Advancing Translational Sciences (NCATS), 2010).
Among all 320,000 compounds or so, about 2,100 (0.66%) were called active. Inconclusive means that the source gave no clear call. Such entries were picked first, then a sample of the others. The call rests on the fitted dose curve; in most records, active means well fitted inhibition curve with a large enough effect in the signal ratio, with a control signal flat (not every such curve was filed as active); inconclusive means small, poorly fitted or top-dose-only effect, or effect the other way, or a change in a side signal; inactive means flat fitted curve, though single readings scatter; the % refers to the signal ratio. A potency beside an inconclusive call is a rough fit, not a confirmed value.

Assay: qHTS Assay for Lipid Storage Modulators in Drosophila S3 Cells
Details: BODIPY lipid droplet fluorescence, 18-24 h, cells fed with added oleic acid; lipid storage change, negative = inhibition: at 46.1 µM (top of the series) unless noted
Procedure, shortened: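 Drosophila S3 cells got compounds at several concentrations plus oleic acid (400 uM solution). Laser-scanning cytometry with 488 nm excitation read lipid droplets at 500-530 nm and cells at 575-640 nm. Percent activity was relative to 20 uM Triacsin C.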
On the % scale 0 is the no-effect control and ±100 the full control effect; potency means the concentration at half of the fitted maximal effect.

Compound	Potency	lipid storage change, negative = inhibition
COc1cccc(C(=O)N(C)C(C)c2nc3ccccc3s2)c1 (configuration not stated)	inconclusive: 11.6 µM [activator, single point]	–
O=C(Nc1cccc(C(F)(F)F)c1)c1ccccc1NC(=O)C1CCCCC1	inconclusive: 29.1 µM [falling, single point]	–
Cc1cccc(NC(=O)c2ccc(Cl)c(S(=O)(=O)N3CCCCCC3)c2)n1	inconclusive: 3.26 µM [activator, single point]	–
COc1ccc(NC(=O)c2nnn(Cc3cccc(F)c3)c2N)c(OC)c1	inconclusive: 3.26 µM [activator, single point]	–
COc1ccccc1Nc1nc(-c2ccccc2)nc2ccccc12	–	inconclusive: 22.6%
CN(C)C/C=C/C(O)(c1ccccc1)c1ccccc1	–	inconclusive: -38.9%
Cc1ccc(S(=O)(=O)N2CCCC(C(=O)NCc3ccccc3F)C2)cc1 (configuration not stated)	–	inconclusive: -97.9%
O=C(NCc1ccccc1)c1ccc(CS(=O)(=O)c2ccc(Br)cc2)o1	inconclusive: 16.4 µM [activator, single point]	–
O=C(C1CCN(S(=O)(=O)c2ccc(Cl)c(C(F)(F)F)c2)CC1)N1CCC1	–	inconclusive: 0.0425%
Cc1cccc(NC(=O)Cn2ccn(-c3ccc4c(c3)OCCO4)c(=O)c2=O)c1	–	inconclusive: 16.4%
COc1ccc2nc(NNC(=O)c3cc(=O)c4ccccc4o3)sc2c1	active: 5.17 µM	–
COC(=O)c1cccc(NC(=O)CC2C(=O)NCCN2C(=O)Nc2ccccc2)c1 (configuration not stated)	–	inconclusive: 14.9%
O=C(Nc1ccccc1C(=O)O)c1ccccc1	inconclusive: 3.66 µM [falling, single point]	–
Cc1nc(-c2ccc(Cl)cc2)sc1C1(C)CC(c2cccc([N+](=O)[O-])c2)=NO1 (configuration not stated)	inconclusive: 7.31 µM [activator, partial curve]	–
Cc1ccc(-c2nc(NCc3ccco3)c3ccccc3n2)cc1	inconclusive: 6.51 µM [falling, partial curve, poor fit]	–
O=C(c1cc2ccccc2o1)N1CCN(Cc2ccccc2)CC1	inconclusive: 6.51 µM [rising, partial curve, poor fit]	–
CCCCn1c(N)c(N(CC(C)C)C(=O)Cn2c(=O)cnc3ccccc32)c(=O)[nH]c1=O	–	inconclusive
C[C@]12CC[C@@H]3c4ccc(OS(=O)(=O)O)cc4CC[C@H]3[C@@H]1CCC2=O	–	inconclusive: -12.3%
CCOC(=O)N1CCN(S(=O)(=O)c2ccc(F)c(C(=O)Nc3cccc(C)c3C)c2)CC1	–	inconclusive: -0.906%
C/C=C/C=C\C(=O)Nc1cccc(C2=NOC3(C2)C[C@@H](C(N)=O)N(C(=O)/C(C)=C/C)C3)c1 (some centres not stated)	–	inconclusive: 6.82%
COc1ccccc1N1CCN(C(=O)C(C)N(c2ccc(C)c(C)c2)S(C)(=O)=O)CC1 (configuration not stated)	inconclusive: 18.4 µM [activator, single point]	–
COC(=O)c1c(C)n(-c2ccccc2)c2ccc(O)cc12	inconclusive: 29.1 µM [falling, single point]	–
O=c1c([N+](=O)[O-])c(O)c2ccccc2n1Cc1ccccc1	inconclusive: 16.4 µM [activator, partial curve]	–
COc1cc(CNC(=O)C2CCC(=O)N(C3CCCCCC3)C2)cc(OC)c1 (configuration not stated)	–	inconclusive: -14.5%

Compound	Potency	lipid storage change, negative = inhibition
Cc1cccc(S(=O)(=O)NNC(=O)c2sc(C)nc2C)c1	–	inconclusive: -30%
Cc1cc(-n2c(C)cc(C(=O)COc3ccccc3[N+](=O)[O-])c2C)no1	–	inconclusive: -22.3% [at 9.22 µM]
O=C(NCCCN1CCOCC1)c1cc2c([nH]c3ccccc32)c(-c2cccc(Br)c2)n1	inconclusive: 16.4 µM [falling, single point]	–
CCOC(=O)CSc1nnc(CNc2ccc(Cl)cc2)n1Cc1ccccc1	–	inconclusive: -15.9%
CCOc1ncccc1C(=O)Nc1cc(S(=O)(=O)N2CCOCC2)ccc1N1CCCC1	–	inconclusive: -2.23%
Cc1ccc2cc(CNC(C)C)c(=O)[nH]c2c1	–	inconclusive: -15.1%
O=C(CN(C(=O)CCC(=O)Nc1nccs1)c1ccc(F)cc1)NCc1ccc2c(c1)OCO2	–	inconclusive: 19.7%
CN1CCSc2ccc(C(=O)Nc3ccc(Cl)cc3)cc21	–	inconclusive: 1.95%
CC(CN1C(C)CCCC1C)OC(=O)c1cccc(Br)c1 (configuration not stated)	–	inconclusive: 8.7%
O=c1[nH]c2ccccc2c(=O)n1Cc1ccco1	–	inconclusive: 54.2%
CNC(=S)/N=C(\Nc1ccc(C)cc1)c1ccccc1	–	inconclusive: 27%
Cc1ccc(OCC(=O)NNC(=O)c2ccc(NC(=O)C3CC3)cc2)c(C)c1	–	inconclusive: 10.1%
CCOC(=O)c1sc(NC(=S)NC(=O)c2ccccc2Cl)c(C(=O)OCC)c1C	–	inconclusive: 39.5%
O=C(CSc1nnc(CNC(=O)c2c(F)cccc2F)o1)Nc1ccc2c(c1)OCO2	–	inconclusive: 20.7%
O=C(CNC1CC1)Nc1cc(C(F)(F)F)ccc1Cl	inconclusive: 29.1 µM [falling, single point]	–
COc1ccc(Cc2nc(C(=O)Nc3ccc(Cl)cc3)cs2)cc1	–	inconclusive: -130%
O=[N+]([O-])c1cccc(S(=O)(=O)Nc2nc3ccccc3nc2Nc2cccc(S(=O)(=O)N3CCCCC3)c2)c1	inconclusive: 16.4 µM [falling, single point]	–
Nc1ccc2c3c(cccc13)CC2	–	inconclusive: -36.3%
COc1ccc(NS(=O)(=O)c2ccc(N)c(C(=O)O)c2)cc1	active: 20.6 µM	–
CCCC(=O)Nc1nc(CC(=O)OCC)cs1	–	inconclusive: -28.9%
Cc1ccc(-c2ccc(=O)n(CC(=O)Nc3cccc(C(=O)N4CCN(C)CC4)c3)n2)cc1	–	inconclusive: 0.462%
Cc1cccc(/C(N)=N/OC(=O)COc2ccccc2Cl)c1	–	inconclusive: 34.8%
Cn1c(C(C#N)C(=O)Cc2cccc3ccccc23)nc2ccccc21 (configuration not stated)	inconclusive: 29.1 µM [activator, single point]	–

A draw from above in order of molecular weight, smallest number first.
Compound	Potency	lipid storage change, negative = inhibition
O=C(CNC1CC1)Nc1cc(C(F)(F)F)ccc1Cl	inconclusive: 29.1 µM [falling, single point]	–
Cc1cccc(/C(N)=N/OC(=O)COc2ccccc2Cl)c1	–	inconclusive: 34.8%
Cc1cccc(S(=O)(=O)NNC(=O)c2sc(C)nc2C)c1	–	inconclusive: -30%
